No end group written: not given here.

The data set is described as follows: Quantification of peptides in the hydrolyzed chicken plasma sample and DoT factors. The conditions noted are these: hydrolyzed chicken plasma sample. From the text: To identify the peptides which play a key role on taste-active and taste-modulating effects, not only the 21 newly identified peptides, but also literature-known basic tastants (e.g., amino acids, γ-glutamyl peptides, cations, anions, etc.) were quantified in the hydrolyzed chicken plasma sample. Focusing on the 21 newly identified peptides, the taste quality, taste thresholds, dose over threshold (DOT) factors and concentrations of the peptides in the hydrolyzed chicken plasma sample are shown in Table 6. The taste thresholds determined for the newly identified peptides (those are listed in Table 6) were used for the calculation of DoT factors which are defined as the ratio of the concentration of a substance and its corresponding taste threshold concentration. The DoT factors enable a first estimation of the taste contribution as substances with DoT factors≥1 most likely contribute directly to the perceived taste.
With “Arg-Asn-Gly-Pro-Arg (RNGPR; Poultry) [SEQ ID NO: 17]”, the “Peptide concentration in the sample” value is 0.6 µmol/kg.
In the case of EDAPVLH [SEQ ID NO: 7], the “Peptide concentration in the sample” value came to 13.2 µmol/kg.
With EETPSHD [SEQ ID NO: 9], the “Peptide concentration in the sample” value was determined as 5.3 µmol/kg.
Then EEVEEEEVE [SEQ ID NO: 10], with 3.2 µmol/kg; and EFDARPT [SEQ ID NO: 8], with 3.6 µmol/kg.
For the substance EFDEKAPD [SEQ ID NO: 11], the “Peptide concentration in the sample” value was found to be 221.1 µmol/kg.
Then EFDEKPAD [SEQ ID NO: 6], with 194.1 µmol/kg.
In the case of EGDSAAI [SEQ ID NO: 19], the “Peptide concentration in the sample” value came out at 47.5 µmol/kg.
For the substance ENAPDQK [SEQ ID NO: 12], the “Peptide concentration in the sample” value came to 20.8 µmol/kg.
As to “Glu-Ala-Glu-Phe-Asp (EAEFD; Poultry) [SEQ ID NO: 3]”, the “Peptide concentration in the sample” value was 123.8 µmol/kg.
Then “Glu-Asp-Met-Ala-Pro (EDMAP; Poultry) [SEQ ID NO: 13]”, with 27.5 µmol/kg; and “Pro-Gln-Pro-Glu-Arg (PQPER; Poultry) [SEQ ID NO: 5]”, with 0.2 µmol/kg; and “Pro-Glu-Arg-Asn-Glu (PERNE; Poultry) [SEQ ID NO: 4]”, with 18.6 µmol/kg.
For “Pro-Ile-Asn-Asp-Asn (PINDN; Poultry) [SEQ ID NO: 14]”, the “Peptide concentration in the sample” value turned out to be 102.6 µmol/kg.
Under “Pro-Leu-Pro-Arg (PLPR; Poultry) [SEQ ID NO: 2]” stands 1.6 µmol/kg.
Under “Pro-Thr-Asp-Leu (PTDL; Poultry) [SEQ ID NO: 15]” stands 995.6 µmol/kg; under “Pro-Val-Ala-Glu (PVAE; Poultry) [SEQ ID NO: 16]”, 171.7 µmol/kg.
Then “Pro-Val-Leu-Lys (PVLK; Poultry) [SEQ ID NO: 1]”, with 2.1 µmol/kg; and RAEDTATYY [SEQ ID NO: 18], with 6.7 µmol/kg.
